Reference: patent US4056540A, “4-Phenyl-1,3-benzodioxans” (Bristol-Myers Company, priority 1975, dated 1977)

Assay: in vivo
Conditions: mouse, po, 24 hours observation

CN1C(=O)CN=C(c2ccccc2)c2cc(Cl)ccc21 [Diazepam, reference compound]
LD50 at 24 h: 1400 mg/kg
